According to patent publication US8288372B2, “Method for treating headache with loxapine” (Alexza Pharmaceuticals, Inc., priority 2002, dated 2012):

System: Male mice
Test: Mouse writhing test (acetic acid 0.5% i.p.)
Conditions: 8 mg/kg i.p., each experiment
Method: Male mice weighing 23-28 g were used in this test. Mice were injected with acetic acid (0.5% i.p.). This treatment induces a recognizable writhing response in control animals. The number of writhes is counted for 10 minutes beginning 5 minutes after injection of acetic acid. Ten mice were studied per group. The test was performed blind. Loxapine and amoxapine (dispersed in 0.2% hydroxypropylmethylcellulose, then dissolved in saline) were evaluated at five doses, administered i.p. 30 minutes before acetic acid, and compared with a vehicle control (0.2% hydroxypropylmethylcellulose in saline) group. Dosage rates for loxapine were 0.125, 0.25, 0.5, 1 and 2 mg/kg. Dosage rates for amoxapine were 1, 2, 4, 8 and 16 mg/kg. […] The data were analyzed by comparing the treated groups with the vehicle control using Mann Whitney U tests.

Q: How did the “Effect on writhing induced by acetic acid” value turn out when CN1CC[C@]23c4c5ccc(O)c4O[C@H]2[C@@H](O)C=C[C@H]3[C@H]1C5 [Morphine] was run?
A: The value was “markedly antagonized writhing”.
